According to paper PMC9839780:
These are yes or no findings as the source states them, for the method shown. Binding seen in cells or lysates may run through a third protein. Some entries that bind do so weakly or less than the wild type. Tags and fused reporters may be left off the sequences shown.

By UniProt entry, the sequences of proteins in these tests, tags left out.
UniProt Q9UN81: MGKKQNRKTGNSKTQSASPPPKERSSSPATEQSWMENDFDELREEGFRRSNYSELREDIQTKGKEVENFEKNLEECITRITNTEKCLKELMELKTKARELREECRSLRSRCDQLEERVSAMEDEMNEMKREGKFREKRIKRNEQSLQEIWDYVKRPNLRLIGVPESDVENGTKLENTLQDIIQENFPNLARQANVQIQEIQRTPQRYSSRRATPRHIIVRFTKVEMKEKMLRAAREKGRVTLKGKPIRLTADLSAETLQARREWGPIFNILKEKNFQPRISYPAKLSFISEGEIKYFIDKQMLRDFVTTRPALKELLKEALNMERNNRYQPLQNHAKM
UniProt Q5H9U9: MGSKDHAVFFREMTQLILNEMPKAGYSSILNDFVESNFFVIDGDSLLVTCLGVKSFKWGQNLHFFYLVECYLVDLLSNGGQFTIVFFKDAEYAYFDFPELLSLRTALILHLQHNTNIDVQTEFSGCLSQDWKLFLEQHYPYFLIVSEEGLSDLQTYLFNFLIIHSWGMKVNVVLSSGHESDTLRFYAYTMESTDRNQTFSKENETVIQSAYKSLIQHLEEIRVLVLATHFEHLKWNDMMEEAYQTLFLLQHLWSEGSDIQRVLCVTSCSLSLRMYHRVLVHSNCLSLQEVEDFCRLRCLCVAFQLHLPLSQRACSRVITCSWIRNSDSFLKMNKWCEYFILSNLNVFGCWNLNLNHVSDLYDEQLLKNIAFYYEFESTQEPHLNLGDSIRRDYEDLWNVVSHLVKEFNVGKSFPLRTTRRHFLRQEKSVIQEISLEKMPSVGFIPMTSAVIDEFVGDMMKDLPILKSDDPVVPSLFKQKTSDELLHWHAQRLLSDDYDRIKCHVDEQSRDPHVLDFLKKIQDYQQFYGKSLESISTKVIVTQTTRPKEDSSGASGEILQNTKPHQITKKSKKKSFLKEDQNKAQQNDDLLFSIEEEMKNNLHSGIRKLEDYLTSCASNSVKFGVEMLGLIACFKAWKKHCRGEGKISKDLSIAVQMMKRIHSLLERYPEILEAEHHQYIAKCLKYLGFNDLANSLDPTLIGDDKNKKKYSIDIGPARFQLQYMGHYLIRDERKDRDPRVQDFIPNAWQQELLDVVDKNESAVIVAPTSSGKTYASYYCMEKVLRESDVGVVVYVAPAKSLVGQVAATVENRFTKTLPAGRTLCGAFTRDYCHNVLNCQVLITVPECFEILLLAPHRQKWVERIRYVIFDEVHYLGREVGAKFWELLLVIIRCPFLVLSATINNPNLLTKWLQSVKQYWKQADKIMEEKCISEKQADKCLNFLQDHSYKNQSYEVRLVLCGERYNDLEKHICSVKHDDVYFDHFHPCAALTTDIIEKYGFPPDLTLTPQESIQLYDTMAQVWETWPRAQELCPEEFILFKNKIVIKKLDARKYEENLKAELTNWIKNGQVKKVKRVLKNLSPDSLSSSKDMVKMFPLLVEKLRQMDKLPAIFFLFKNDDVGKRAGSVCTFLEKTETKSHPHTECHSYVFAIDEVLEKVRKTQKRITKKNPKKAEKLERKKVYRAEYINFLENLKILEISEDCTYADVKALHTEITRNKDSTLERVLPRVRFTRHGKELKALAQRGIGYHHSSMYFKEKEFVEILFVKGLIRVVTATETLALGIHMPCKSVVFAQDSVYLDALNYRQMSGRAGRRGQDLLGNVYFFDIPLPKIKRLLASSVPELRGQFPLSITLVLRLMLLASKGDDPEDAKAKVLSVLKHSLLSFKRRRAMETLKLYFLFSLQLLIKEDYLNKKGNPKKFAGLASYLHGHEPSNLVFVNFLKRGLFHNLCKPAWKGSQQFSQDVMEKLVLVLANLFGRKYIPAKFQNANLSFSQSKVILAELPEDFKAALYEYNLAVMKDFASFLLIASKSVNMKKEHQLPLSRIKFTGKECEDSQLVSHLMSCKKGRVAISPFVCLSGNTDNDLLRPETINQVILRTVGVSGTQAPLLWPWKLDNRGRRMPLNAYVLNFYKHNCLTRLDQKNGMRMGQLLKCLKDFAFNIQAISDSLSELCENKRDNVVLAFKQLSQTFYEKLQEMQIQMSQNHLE

B1: HERC5-3xMYC fusion protein (pALAF023_hHERC5-3xMYC) (protein, UniProt Q9UII4 1-1024)
chain: MERRSRRKSRRNGRSTAGKAAATQPAKSPGAQLWLFPSAAGLHRALLRRVEVTRQLCCSPGRLAVLERGGAGVQVHQLLAGSGGARTPKCIKLGKNMKIHSVDQGAEHMLILSSDGKPFEYDNYSMKHLRFESILQEKKIIQITCGDYHSLALSKGGELFAWGQNLHGQLGVGRKFPSTTTPQIVEHLAGVPLAQISAGEAHSMALSMSGNIYSWGKNECGQLGLGHTESKDDPSLIEGLDNQKVEFVACGGSHSALLTQDGLLFTFGAGKHGQLGHNSTQNELRPCLVAELVGYRVTQIACGRWHTLAYVSDLGKVFSFGSGKDGQLGNGGTRDQLMPLPVKVSSSEELKLESHTSEKELIMIAGGNQSILLWIKKENSYVNLKRTIPTLNEGTVKRWIADVETKRWQSTKREIQEIFSSPACLTGSFLRKRRTTEMMPVYLDLNKARNIFKELTQKDWITNMITTCLKDNLLKRLPFHSPPQEALEIFFLLPECPMMHISNNWESLVVPFAKVVCKMSDQSSLVLEEYWATLQESTFSKLVQMFKTAVICQLDYWDESAEENGNVQALLEMLKKLHRVNQVKCQLPESIFQVDELLHRLNFFVEVCRRYLWKMTVDASENVQCCVIFSHFPFIFNNLSKIKLLHTDTLLKIESKKHKAYLRSAAIEEERESEFALRPTFDLTVRRNHLIEDVLNQLSQFENEDLRKELWVSFSGEIGYDLGGVKKEFFYCLFAEMIQPEYGMFMYPEGASCMWFPVKPKFEKKRYFFFGVLCGLSLFNCNVANLPFPLALFKKLLDQMPSLEDLKELSPDLGKNLQTLLDDEGDNFEEVFYIHFNVHWDRNDTNLIPNGSSITVNQTNKRDYVSKYINYIFNDSVKAVYEEFRRGFYKMCDEDIIKLFHPEELKDVIVGNTDYDWKTFEKNARYEPGYNSSHPTIVMFWKAFHKLTLEEKKKFLVFLTGTDRLQMKDLNNMKITFCCPESWNERDPIRALTCFSVLFLPKYSTMETVEEALQEAINNNRGFG
B2: OASL-3xMYC fusion protein (pALAF022_hOASL-3xMYC) (protein, UniProt Q15646 1-514)
chain: MALMQELYSTPASRLDSFVAQWLQPHREWKEEVLDAVRTVEEFLRQEHFQGKRGLDQDVRVLKVVKVGSFGNGTVLRSTREVELVAFLSCFHSFQEAAKHHKDVLRLIWKTMWQSQDLLDLGLEDLRMEQRVPDALVFTIQTRGTAEPITVTIVPAYRALGPSLPNSQPPPEVYVSLIKACGGPGNFCPSFSELQRNFVKHRPTKLKSLLRLVKHWYQQYVKARSPRANLPPLYALELLTIYAWEMGTEEDENFMLDEGFTTVMDLLLEYEVICIYWTKYYTLHNAIIEDCVRKQLKKERPIILDPADPTLNVAEGYRWDIVAQRASQCLKQDCCYDNRENPISSWNVKRARDIHLTVEQRGYPDFNLIVNPYEPIRKVKEKIRRTRGYSGLQRLSFQVPGSERQLLSSRCSLAKYGIFSHTHIYLLETIPSEIQVFVKNPDGGSYAYAINPNSFILGLKQQIEDQQGLPKKQQQLEFQGQVLQDWLGLGIYGIQDSDTLILSKKKGEALFPAS
B3: hIFIT1-3xMYC fusion protein (pALAF016_hIFIT1-3xMYC) (protein, UniProt P09914 1-478)
chain: MSTNGDDHQVKDSLEQLRCHFTWELSIDDDEMPDLENRVLDQIEFLDTKYSVGIHNLLAYVKHLKGQNEEALKSLKEAENLMQEEHDNQANVRSLVTWGNFAWMYYHMGRLAEAQTYLDKVENICKKLSNPFRYRMECPEIDCEEGWALLKCGGKNYERAKACFEKVLEVDPENPESSAGYAISAYRLDGFKLATKNHKPFSLLPLRQAVRLNPDNGYIKVLLALKLQDEGQEAEGEKYIEEALANMSSQTYVFRYAAKFYRRKGSVDKALELLKKALQETPTSVLLHHQIGLCYKAQMIQIKEATKGQPRGQNREKLDKMIRSAIFHFESAVEKKPTFEVAHLDLARMYIEAGNHRKAEENFQKLLCMKPVVEETMQDIHFHYGRFQEFQKKSDVNAIIHYLKAIKIEQASLTRDKSINSLKKLVLRKLRRKALDLESLSLLGFVYKLEGNMNEALEYYERALRLAADFENSVRQGP

biological target: WT ORF1p-FLAG (L1.3 ORF1-encoded protein with a carboxyl-terminal FLAG epitope tag, expressed from pJM101/L1.3FLAG) in HEK293T cells (human) (UniProt Q9UN81); test: co-IP; HEK293T cells co-transfected with pJM101/L1.3FLAG and a 3xMYC-tagged ISG expression vector; anti-FLAG M2 on Dynabeads Protein G, Lysis150 buffer, 4 °C; western blot with anti-MYC

Row | binding | Molecule
1 | binds | hDDX60L-3xMYC fusion protein (pALAF021_hDDX60L-3xMYC) (from UniProt Q5H9U9 1-1706)
2 | binds | B1
3 | binds | B2
4 | binds | B3
